# Measured values reported in patent publication US20230140635A1, “3-(2-(Aminoethyl)-Indol-4-ol Derivatives, Methods of Preparation Thereof, and the Use as 5-HT2 Receptor Modulators” (priority 2020, published 2023).
# Protein sequences, listed by entry. Tags and fused reporters are not part of them.
# UniProt P28223, whole entry: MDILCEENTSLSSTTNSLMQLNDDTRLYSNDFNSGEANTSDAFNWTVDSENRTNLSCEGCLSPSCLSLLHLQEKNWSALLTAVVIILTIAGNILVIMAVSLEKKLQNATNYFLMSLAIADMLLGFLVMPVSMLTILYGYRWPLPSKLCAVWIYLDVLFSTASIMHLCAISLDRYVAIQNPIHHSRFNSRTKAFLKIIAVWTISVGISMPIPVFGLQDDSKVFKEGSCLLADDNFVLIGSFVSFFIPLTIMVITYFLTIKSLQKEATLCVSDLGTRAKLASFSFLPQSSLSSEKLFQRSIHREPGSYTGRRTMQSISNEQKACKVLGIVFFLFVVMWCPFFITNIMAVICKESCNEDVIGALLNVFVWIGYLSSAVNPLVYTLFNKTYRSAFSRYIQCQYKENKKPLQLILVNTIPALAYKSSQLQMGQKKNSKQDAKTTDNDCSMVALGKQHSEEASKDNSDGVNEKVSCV
# At least one structure is not confirmed: it was looked up by name or label, or the drawing left a doubt.
# Key:
# 5-HT2A [1] = target: T1, 5-HT2A (Homo sapiens, UniProt P28223); conditions: cited from earlier work
# 5-HT2C [2] = target: T2, 5-HT2C (Homo sapiens, UniProt P28335); conditions: cited from earlier work
# T2 sequence (P28335 33-458): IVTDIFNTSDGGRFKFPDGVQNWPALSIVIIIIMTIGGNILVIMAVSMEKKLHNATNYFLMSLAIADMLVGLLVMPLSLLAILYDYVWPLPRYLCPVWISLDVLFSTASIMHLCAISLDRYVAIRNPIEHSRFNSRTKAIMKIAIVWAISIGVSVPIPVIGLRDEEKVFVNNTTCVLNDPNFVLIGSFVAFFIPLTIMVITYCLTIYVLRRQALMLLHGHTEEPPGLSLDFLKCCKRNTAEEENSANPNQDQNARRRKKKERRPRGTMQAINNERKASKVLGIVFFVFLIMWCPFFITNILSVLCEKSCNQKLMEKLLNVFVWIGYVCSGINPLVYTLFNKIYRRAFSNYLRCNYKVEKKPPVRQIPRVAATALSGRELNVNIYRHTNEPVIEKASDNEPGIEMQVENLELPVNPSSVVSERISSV
# mouse OCD model = conditions: ascribed to 5-HT2C receptor agonist activity; cited from earlier work
# mouse head twitch = conditions: relative to psilocin; Halberstadt et al. 2011; cited from earlier work
# 5-HT2A [3] = target: T1, 5-HT2A; assay: 5-HT2 Gq-Dissociation BRET assay; format: cell-based; parameters: expressed in transfected cells; host or cells: HEK293T
# 5-HT2C [4] = target: T2, 5-HT2C; format: cell-based; parameters: expressed in transfected cells; host or cells: HEK293T; conditions: 1-ethyl
# cancer patients = conditions: high-dose; 6-month follow-up; cited from earlier work
# [5] = tested on: patients with alcohol dependence; conditions: 10 patients, alcohol dependence per DSM-IV; cited from earlier work
# [6] = tested on: participants with tobacco addiction; conditions: cited from earlier work
# subjects with OCD = conditions: cited from earlier work
smiles,measurement,setting,value
"CN(C)CCc1cn(C)c2cccc(O)c12 [Example 1, 3-(2-(dimethylamino)ethyl)-1-methyl-1H-indol-4-ol]","functional efficacy response vs serotonin, human 5-HT2A receptor",5-HT2A [1],ca. 30%
same,"functional efficacy response vs serotonin, human 5-HT2C receptor",5-HT2C [2],ca. 45%
same,efficacy in a mouse OCD model,mouse OCD model,efficacy in a mouse OCD model demonstrated
same,efficacy in the mouse head twitch assay,mouse head twitch,efficacious in the mouse head twitch assay model for 5-HT2A activity but with much lower potency relative to psilocin
same,fold higher potency at 5-HT2A receptors than had been reported,5-HT2A [3],10 fold
"CCn1cc(CCN(C)C)c2c(O)cccc21 [Example 2, 3-(2-(dimethylamino)ethyl)-1-ethyl-1H-indol-4-ol]",potency and selectivity for 5-HT2C receptors,5-HT2C [4],surprisingly high potency and selectivity for 5-HT2C receptors
CN(C)CCc1c[nH]c2cccc(OP(=O)(O)O)c12 [psilocybin],participants continuing to show clinically significant decreases in depressed mood and anxiety,cancer patients,about 80%
same,alcohol use post administration,[5],a significant decrease in alcohol use
same,participants with biologically verified 7-day point-prevalence abstinence,[6]; 6-month follow up,eighty
same,participants biologically verified as being abstinent,[6]; 12-month follow-up,67%
same,participants abstinent,[6]; follow-up 2.5 years after the target quit date,75%
same,core OCD symptoms,subjects with OCD,acute reductions in core OCD symptoms in several subjects
